No constants are given. Whether binding was seen depends on the method and setting. Binding can be weak; no strength is given.
Molecular target: Sso1 tagged with mVenus (S. cerevisiae) (UniProt P32867)
Assay: FRET or BRET; bulk FRET in the assembled yeast SNARE complex between mTurq on Snc1 and mVenus on Sso1; excitation 434 nm; plate reader, 384-well format; both purified

By UniProt entry, the sequences of proteins in these tests, tags left out. Where a name states a change or a piece, a line headed by the entry shows the natural chain unless it says otherwise.
UniProt P32867: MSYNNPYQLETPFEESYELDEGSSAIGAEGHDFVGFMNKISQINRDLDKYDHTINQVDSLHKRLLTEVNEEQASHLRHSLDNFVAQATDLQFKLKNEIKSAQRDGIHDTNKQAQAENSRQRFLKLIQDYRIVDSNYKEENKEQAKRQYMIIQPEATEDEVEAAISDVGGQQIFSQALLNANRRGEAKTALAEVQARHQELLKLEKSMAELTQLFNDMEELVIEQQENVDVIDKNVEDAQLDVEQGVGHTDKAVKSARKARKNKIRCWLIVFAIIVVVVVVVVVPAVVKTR
UniProt P31109: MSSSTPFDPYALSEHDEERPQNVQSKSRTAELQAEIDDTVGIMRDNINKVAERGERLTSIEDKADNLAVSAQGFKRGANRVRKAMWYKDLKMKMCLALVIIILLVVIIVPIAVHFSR

binding: binds
Substance: Snc1 tagged with mTurq (from UniProt P31109)

Source: PMC12440825
